Measured values taken from patent US11441098B2, “α-hydroxyisobutyrate ester compound, fragrance composition, and use thereof as fragrance” (MITSUBISHI GAS CHEMICAL COMPANY, INC., priority 2018, dated 2022).

Test: Comparative aroma evaluation by perfumers of mint-tone fragrances diluted with ester of Example 3 versus ethanol
Conditions: 10 parts by mass of mint fragrance in 90 parts by mass of isopropyl α-hydroxyisobutyrate versus 90 parts 99.5% ethanol
Procedure: A fragrance composition was prepared by adding 90 parts by mass of the isopropyl α-hydroxyisobutyrate obtained in Example 3 to 10 parts by mass of L-menthol. In addition, a fragrance composition was prepared, as a comparative target, by adding 90 parts by mass of 99.5% ethanol to 10 parts by mass of L-menthol. According to the aroma evaluation by perfumers, the difference between both the aromas were comparatively evaluated. DL-menthone and L-carvone were also comparatively evaluated in the same manner.
With `CC(C)[C@@H]1CC[C@@H](C)CC1=O` (racemic) [DL-Menthone, DL-menthone] the “Aroma evaluation of solution of ester of Example 3 in comparison with ethanol solution” value (shortened to “Aroma evaluation … with ethanol solution”) was “A more natural mint-like aroma having an emphasized”. In the case of `CC(C)[C@@H]1CC[C@@H](C)C[C@H]1O` [L-Menthol, L-menthol], the “Aroma evaluation … with ethanol solution” value is reported as “A more natural mint-like aroma having an emphasized”. With L-carvone the “Aroma evaluation … with ethanol solution” value was “A more natural and mild mint-like aroma, to which a”.

Test: not given
Conditions: Non Patent Document 1 / Patent Document 1; cited from earlier work
For `CCCCOC(=O)C(C)C` [butyl isobutyrate], the Scent is given as “fresh apple- and banana-like scent”. For `CC(C)CCOC(=O)C(C)C` [isoamyl isobutyrate], the Scent is listed as “sweet apricot- and pineapple-like scent”. For `COC(=O)C(C)C` [methyl isobutyrate], the Scent is given as “sweet apricot-like scent”. For `CCCCCCOC(=O)C(C)(C)OCC` [n-hexyl α-ethoxyisobutyrate], the Scent is listed as “lavender-like aroma”. For `CCCOC(=O)C(C)C` [propyl isobutyrate], the Scent is given as “strong pineapple-like scent”.

Test: Aroma evaluation performed by perfumers for the α-hydroxyisobutyrate esters
Conditions: ester alone
Text: The results of aroma evaluation performed by perfumers for the various α-hydroxyisobutyrate esters obtained by the method described above are shown in Table 1.
For `CC(C)CC(C)OC(=O)C(C)(C)O` (racemic) [Example 13, 4-Methylpentan-2-yl α-hydroxyisobutyrate], the Aroma evaluation was “Green mint-like aroma Spicy aroma Jasmine-like floral aroma Peach-like fruity aroma”. In the case of `CCOC(=O)C(C)(C)O` [Example 1, ethyl α-hydroxyisobutyrate], the Aroma evaluation is reported as “Mint-like aroma Chamomile-like herbal aroma Green apple-like fruity aroma”. For `CCCOC(=O)C(C)(C)O` [Example 2, n-Propyl α-hydroxyisobutyrate], the Aroma evaluation was “Mint-like aroma Lilac-like white floral aroma Sweet coconut-like aroma”. For `CC(C)OC(=O)C(C)(C)O` [Example 3, Isopropyl α-hydroxyisobutyrate], the Aroma evaluation was “Mint-like aroma Lilac-like floral-green aroma”. In the case of `CCCCOC(=O)C(C)(C)O` [Example 4, n-Butyl α-hydroxyisobutyrate], the Aroma evaluation is reported as “Mint-like aroma Floral aroma Coconut-like aroma”. In the case of `CC(C)COC(=O)C(C)(C)O` [Example 5, Isobutyl α-hydroxyisobutyrate], the Aroma evaluation is reported as “Mint-like aroma Sweet floral aroma Coconut-like aroma”. For `CCC(C)OC(=O)C(C)(C)O` (stereo not drawn) [Example 6, sec-Butyl α-hydroxyisobutyrate], the Aroma evaluation was “Floral green aroma Balsamic green aroma Fruity-like green aroma”. With `CCC(C)COC(=O)C(C)(C)O` (stereo not drawn) [Example 7, 2-Methylbutyl α-hydroxyisobutyrate] the Aroma evaluation was “Muguet-like floral aroma Lilac-like floral aroma Green mint-like aroma Coconut-like fruity aroma”. In the case of `CC(C)(C)COC(=O)C(C)(C)O` [Example 8, Neopentyl α-hydroxyisobutyrate], the Aroma evaluation is reported as “Muguet-like floral aroma Rose-like floral aroma Fresh floral aroma Lilac-like floral aroma Coconut-like fruity aroma”. For `CCCC(C)COC(=O)C(C)(C)O` (stereo not drawn) [Example 9, 2-Methylpentyl α-hydroxyisobutyrate], the Aroma evaluation was “Peach-like fruity aroma Spicy pear-like aroma Coconut-like fruity aroma Fruity marine aroma”. For `CCCCCCOC(=O)C(C)(C)O` [Example 10, n-Hexyl α-hydroxyisobutyrate], the Aroma evaluation was “Sweet milky aroma Floral aroma Strong green aroma”. With `CC(C)(O)C(=O)OC1CCCC1` [Example 11, Cyclopentyl α-hydroxyisobutyrate] the Aroma evaluation was “Fresh mint-like aroma Fruity aroma Lilac-like, lily of the valley-like, and gardenia-like White floral aroma”. For `CC(C)(O)C(=O)OC1CCCCC1` [Example 12, Cyclohexyl α-hydroxyisobutyrate], the Aroma evaluation was “Mint-like aroma Sweet coconut-like aroma Lilac-like floral aroma”.
